No constants are given. Whether binding was seen depends on the method and setting. For some assays here: Binding seen in cells or lysates may run through a third protein. Some entries that bind do so weakly or less than the wild type. Tags and fused reporters may be left off the sequences shown.
Legend:
[1] = target: T1, LILRB2 extracellular domain fused to human IgG-Fc (human) (UniProt Q8N423); experiment: co-transfection in 293T cells, IP with protein A, Western blot
T1 sequence: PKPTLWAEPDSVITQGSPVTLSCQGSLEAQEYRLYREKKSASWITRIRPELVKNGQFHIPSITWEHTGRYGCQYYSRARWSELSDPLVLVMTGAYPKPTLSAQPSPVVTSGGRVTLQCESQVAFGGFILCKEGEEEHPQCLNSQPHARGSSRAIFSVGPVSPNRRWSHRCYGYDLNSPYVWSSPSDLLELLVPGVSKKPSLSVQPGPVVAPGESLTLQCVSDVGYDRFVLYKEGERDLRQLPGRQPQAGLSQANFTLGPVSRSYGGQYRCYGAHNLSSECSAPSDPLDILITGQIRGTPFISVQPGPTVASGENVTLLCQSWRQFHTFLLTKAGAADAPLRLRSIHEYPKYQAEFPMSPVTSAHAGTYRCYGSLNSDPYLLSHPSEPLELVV

Chains of the proteins cited; added tags and fusions are not shown. Lines headed by an entry give the natural chain unless they say otherwise; changes in a name come on top.
UniProt Q86XS5: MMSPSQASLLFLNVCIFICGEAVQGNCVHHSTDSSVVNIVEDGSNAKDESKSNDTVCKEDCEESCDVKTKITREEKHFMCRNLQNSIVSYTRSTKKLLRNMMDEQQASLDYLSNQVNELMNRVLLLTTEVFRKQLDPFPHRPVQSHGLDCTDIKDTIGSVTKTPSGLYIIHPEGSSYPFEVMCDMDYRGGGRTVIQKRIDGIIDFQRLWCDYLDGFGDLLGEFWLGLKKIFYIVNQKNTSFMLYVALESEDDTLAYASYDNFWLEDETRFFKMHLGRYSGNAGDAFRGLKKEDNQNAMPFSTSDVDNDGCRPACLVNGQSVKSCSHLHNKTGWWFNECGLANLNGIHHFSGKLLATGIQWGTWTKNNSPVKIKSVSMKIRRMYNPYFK

[2] = target: T1, LILRB2 extracellular domain fused to human IgG-Fc (human); experiment: in vivo co-IP (Table 2)
[3] = target: T1, LILRB2 extracellular domain fused to human IgG-Fc (human); experiment: in vivo co-IP
[4] = target: T1, LILRB2 extracellular domain fused to human IgG-Fc (human); experiment: in vitro co-IP of purified proteins, protein A beads, Western blot
[5] = target: T1, LILRB2 extracellular domain fused to human IgG-Fc (human); experiment: SPR (Biacore 2000), LILRB2-hFc captured on protein A, GST-Angptl-5 injected

Row | binding [1] | binding [2] | binding [3] | binding [4] | binding [5] | Substance
1 | binds | binds | binds | – | – | untagged Angptl-5, mammalian-expressed (from UniProt Q86XS5 26-388) (ligand)
2 | – | – | – | binds | binds | GST-Angptl-5 (purified, purchased from Abnova) (from UniProt Q86XS5 26-388) (ligand)

Source: patent US20150174203A1
